Tests used:
[1] = test system: LDL; experiment: K-37 fluorescence in LDL with and without octanoate (Example 4)
[2] = test system: HDL; experiment: Nile Red discrimination between lipoprotein classes (Examples 3 and 5)
[3] = test system: LDL; experiment: Nile Red fluorescence in LDL with and without octanoate (Example 5)

Structure (SMILES)	Fluorescence Intensity ([1]; 0.5 mM K-37 plus 5 mM LDL) [units]	Fluorescence Intensity ([1]; 0.5 mM K-37 plus 5 mM LDL + 0.1 M sodium octanoate) [units]	fluorescence in HDL relative to VLDL and LDL ([2]; excitation at 460 nm)	fluorescence enhancement in HDL relative to VLDL and LDL ([2]; excited at 460 nm, emission 620 nm)	fluorescence in HDL relative to VLDL and LDL ([2]; excited at 600 nm)	fluorescence in HDL relative to VLDL and LDL ([2]; excited at 600 nm, listed as Nile red) [times]	Fluorescence Intensity ([3]; 0.5 mM Nile Red plus 5 mM LDL) [units]	Fluorescence Intensity ([3]; 0.5 mM Nile Red plus 5 mM LDL + 50 mM octanoate) [units]
CN(C)c1ccc(/C=C/C(=O)c2ccc(S(=O)(=O)C(F)F)cc2)cc1 [K-37, 4-dimethylamino-4′-difluoromethyl-sulphonyl-benzylidene-acetophenone]	213500	209700	–	–	–	–	–	–
CCN(CC)c1ccc2nc3c4ccccc4c(=O)cc-3oc2c1 [Nile Red]	–	–	about 2 times	twice	about 5 times	> 5	187.532	183.786

From US20110129932A1, “Lipoprotein Assay” (L3 TECHNOLOGY LIMITED, priority 2006, published 2011)
